Measurements from PubChem BioAssay AID248 (DTP/NCI, 2004).
The list shows only some results of the screen, not a fair sample: it gathers tests that were run many times, whatever their T/C, doses with no T/C, and many T/C values between a quarter and a half above the control. Further doses and runs are listed elsewhere. T/C is the treated group as % of the vehicle group. Some doses have a count of surviving animals in place of a T/C: the source files T/C as zero there, which appears to mark a toxic dose or a test without result, not a measured value. Some doses without a T/C left all or most animals alive at the check, yet need not have been tolerated: survival well below the control is almost never listed, so the zero probably covers shortened survival too. Survivors were counted at the toxicity check, usually on the fifth day, unless a day is given; later deaths do not show. Schedules are NCI's codes, read here as Q, the interval in days (D) or hours (H), X, the number of doses. Some entries were tested several times; the results are listed from low to high. Where survival is the endpoint, the PubChem record calls one and a half times the control and up active, and a quarter to a half above the control has no call in these data; cut-offs in other NCI protocols can differ. Marks such as (2×) say how often a value occurs here. Some schedules carry Z or #; the key to these is not given. Some T/C values are followed by the survivors on the day toxicity was checked, most often the fifth; where none is given, no animal had died by that day.

Tested on: L1210 leukemia ip in BDF1 mice, survival T/C
Assay: NCI In Vivo Anticancer Drug Screen. Data for tumor model L1210 Leukemia (intraperitoneal) in B6D2F1 (BDF1) mice
Details: higher T/C = longer survival

## Nc1nc(=S)c2[nH]cnc2[nH]1
T/C endpoint: mean survival time, dose: 18.0 mg/kg/injection, schedule: Q07DX012 (ip), vehicle: alkali diluted with saline
  T/C: 142 % of control
T/C endpoint: mean survival time, dose: 27.0 mg/kg/injection, schedule: Q04DX002 (ip), vehicle: alkali diluted with saline
  T/C: 117, 193, 197, 212 % of control
T/C endpoint: mean survival time, dose: 27.0 mg/kg/injection, schedule: Q04DX004 (ip), vehicle: alkali diluted with saline
  T/C: 130 % of control
T/C endpoint: mean survival time, dose: 27.0 mg/kg/injection, schedule: Q04DX006 (ip), vehicle: alkali diluted with saline
  T/C: 137 % of control
T/C endpoint: mean survival time, dose: 27.0 mg/kg/injection, schedule: Q04DX008 (ip), vehicle: alkali diluted with saline
  T/C: 138 % of control
T/C endpoint: mean survival time, dose: 27.0 mg/kg/injection, schedule: Q04DX010 (ip), vehicle: alkali diluted with saline
  T/C: 134 % of control
T/C endpoint: mean survival time, dose: 27.0 mg/kg/injection, schedule: Q07DX004 (ip), vehicle: alkali diluted with saline
  T/C: 139 % of control
T/C endpoint: mean survival time, dose: 27.0 mg/kg/injection, schedule: Q07DX006 (ip), vehicle: alkali diluted with saline
  T/C: 146 % of control
T/C endpoint: mean survival time, dose: 27.0 mg/kg/injection, schedule: Q07DX008 (ip), vehicle: alkali diluted with saline
  T/C: 147 % of control
T/C endpoint: mean survival time, dose: 27.0 mg/kg/injection, schedule: Q07DX010 (ip), vehicle: alkali diluted with saline
  T/C: 148 % of control
T/C endpoint: mean survival time, dose: 27.0 mg/kg/injection, schedule: Q07DX012 (ip), vehicle: alkali diluted with saline
  T/C: 137 % of control
T/C endpoint: mean survival time, dose: 28.0 mg/kg/injection, schedule: Q01DX001 (ip), vehicle: saline
  T/C: 156, 160 (2×), 180 % of control
T/C endpoint: mean survival time, dose: 36.0 mg/kg/injection, schedule: Q## X008 (ip), vehicle: alkali diluted with saline
  T/C: 132 % of control
T/C endpoint: mean survival time, dose: 40.0 mg/kg/injection, schedule: Q04DX004 (ip), vehicle: alkali diluted with saline
  T/C: 145 % of control
T/C endpoint: mean survival time, dose: 40.0 mg/kg/injection, schedule: Q07DX004 (ip), vehicle: alkali diluted with saline
  T/C: 138 % of control
T/C endpoint: mean survival time, dose: 40.0 mg/kg/injection, schedule: Q07DX006 (ip), vehicle: alkali diluted with saline
  T/C: 142 % of control
T/C endpoint: mean survival time, dose: 40.0 mg/kg/injection, schedule: Q07DX008 (ip), vehicle: alkali diluted with saline
  T/C: 137 % of control
T/C endpoint: mean survival time, dose: 40.0 mg/kg/injection, schedule: Q07DX010 (ip), vehicle: alkali diluted with saline
  T/C: 137 % of control
T/C endpoint: mean survival time, dose: 40.0 mg/kg/injection, schedule: Q07DX012 (ip), vehicle: alkali diluted with saline
  T/C: 136 % of control
T/C endpoint: mean survival time, dose: 45.0 mg/kg/injection, schedule: Q01DX001 (ip), vehicle: alkali diluted with saline
  T/C: 148 % of control
T/C endpoint: mean survival time, dose: 45.0 mg/kg/injection, schedule: Q04DX003 (ip), vehicle: alkali diluted with saline
  T/C: 139 % of control
T/C endpoint: mean survival time, dose: 48.0 mg/kg/injection, schedule: Q03DX006 (ip), vehicle: saline
  survivor count: 6 of 6
T/C endpoint: mean survival time, dose: 48.0 mg/kg/injection, schedule: Q07DX003 (ip), vehicle: saline
  T/C: 147 % of control
T/C endpoint: mean survival time, dose: 53.0 mg/kg/injection, schedule: Q04DX002 (ip), vehicle: alkali diluted with saline
  T/C: 132, 176, 200, 236 % of control
T/C endpoint: mean survival time, dose: 56.0 mg/kg/injection, schedule: Q01DX001 (ip), vehicle: saline
  T/C: 135 and 145 % of control
T/C endpoint: mean survival time, dose: 60.0 mg/kg/injection, schedule: Q07DX006 (ip), vehicle: alkali diluted with saline
  T/C: 146 % of control [8 of 10 alive]
T/C endpoint: mean survival time, dose: 60.0 mg/kg/injection, schedule: Q07DX008 (ip), vehicle: alkali diluted with saline
  T/C: 135 % of control
T/C endpoint: mean survival time, dose: 60.0 mg/kg/injection, schedule: Q07DX010 (ip), vehicle: alkali diluted with saline
  T/C: 145 % of control
T/C endpoint: mean survival time, dose: 67.5 mg/kg/injection, schedule: Q01DX001 (ip), vehicle: carboxymethylcellulose (CMC)
  T/C: 126 % of control
T/C endpoint: mean survival time, dose: 106.0 mg/kg/injection, schedule: Q04DX002 (ip), vehicle: alkali diluted with saline
  survivor count: 1 of 6
T/C endpoint: mean survival time, dose: 112.0 mg/kg/injection, schedule: Q01DX001 (ip), vehicle: saline
  T/C: 140 and 145 % of control
T/C endpoint: mean survival time, dose: 150.0 mg/kg/injection, schedule: Q08DX002 (ip), vehicle: alkali diluted with saline
  survivor count: 5 of 10
T/C endpoint: mean survival time, dose: 180.0 mg/kg/injection, schedule: Q01DX001 (ip), vehicle: alkali diluted with saline
  survivor count: 1 of 10 and 3 of 10
T/C endpoint: mean survival time, dose: 224.0 mg/kg/injection, schedule: Q01DX001 (ip), vehicle: saline
  T/C: 130 % of control
T/C endpoint: mean survival time, dose: 225.0 mg/kg/injection, schedule: Q01DX001 (ip), vehicle: alkali diluted with saline
  survivor count: 5 of 10
T/C endpoint: mean survival time, dose: 225.0 mg/kg/injection, schedule: Q08DX002 (ip), vehicle: alkali diluted with saline
  survivor count: 1 of 10
T/C endpoint: mean survival time, dose: 400.0 mg/kg/injection, schedule: Q01DX001 (ip), vehicle: saline
  survivor count: 0 of 6
T/C endpoint: mean survival time, dose: 245.0 micrograms/kg/injection, schedule: Q01DX Z (ip), vehicle: carboxymethylcellulose (CMC)
  T/C: 127 % of control
T/C endpoint: mean survival time, dose: 326.0 micrograms/kg/injection, schedule: Q01DX Z (ip), vehicle: carboxymethylcellulose (CMC)
  T/C: 138 % of control
T/C endpoint: mean survival time, dose: 490.0 micrograms/kg/injection, schedule: Q01DX Z (ip), vehicle: carboxymethylcellulose (CMC)
  T/C: 149 % of control
T/C endpoint: median survival time, dose: 2.0 mg/kg/injection, schedule: Q01DX009 (ip), vehicle: other
  T/C: 138 % of control
T/C endpoint: median survival time, dose: 8.0 mg/kg/injection, schedule: Q01DX009 (ip), vehicle: other
  T/C: 133 % of control
